B1: glmS ribozyme (parent)
chain: AUAAAAGCGCCAGAACUACAGAAAUGUAGUUGACGAGGAGGAGGUUUAUCGAAUUUUCGGCGGAUGCCUCCAAA

± gives the standard error. The uncertainty is large for many entries.

The first data set covers variants of B1. The data set is described as follows: KM; higher = weaker cofactor use; RNA array. Conditions: with glucosamine-6-phosphate. In outline:
(§1)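 Over ~14 h at 37 °C, tiles were imaged as glucosamine-6-phosphate (40 μM to 10 mM) in HEPES/KCl/Mg(OAc)2 buffer flowed across sequenced MiSeq chips. The chips carried barcoded ribozyme variants transcribed in situ by E. coli RNA polymerase and tracked with a hybridised Cy3 probe. After normalisation to baseline and to non-cleaving reference variants, one- or two-exponential decay fits of per-tile medians gave kobs. kcat and KM followed from weighted Michaelis–Menten fits across concentrations.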
Consider AUAAAAGCGCCAGAACUACAGAAAUGUAGUUGACGAGGAGGGGGUUUAUCGAAUUUUCGGCGGAUGCCUGCAAA [A42G C70G], for which the KM – broadly, the concentration of substrate that gives half-maximal velocity – was determined as 261 ± 120 µM. Same read-out and setting: to AUAAAAGCGCCAGAACUACAGAAAUGUAGUUGACGAGGAGGAGGGUUAUCGAAUGUUCGGCGGAUGCCUCCAAA [U45G U55G] belongs 2970 ± 1000 µM; to AUAAAAGCGCCAGAACUACAGAAAUGUAGUUGACGAGGAGGAAGGUUAUCGAAUUUUGGGCGGAUGCCUCCAAA [G43A U45G C58G], 199 ± 61 µM; to AUAAAAGCGCCAGAACUACAGAAAUGUAGUUGACGAGGAGGAGGUAUAUCGAAUUUUCGGCGGAUGUCUCCAAA [U46A C67U], 2370 ± 780 µM. The same measure, in the same setting: the result for AUAAAAGCGCCAGAACUACAGAAAUGUAGUUGACGAGGAGGAUGUUUAUCGAUUUUUCGGCGGAUGCCUCCAAA [G43U A53U] reads 2760 ± 880 µM. Same read-out and setting: the result for AUAAAAGCGCCAGAACUACAGAAAUGUAGUUGACGAGGAGGAUGUUUAUCGAGUUUUCGGCGGAUGCCUCCAAA [G43U A53G] reads 793 ± 120 µM; that for AUAAAAGCGCCAGAACUACAGAAAUGUAGUUGACGAGGAGGAGGUAGAUCGAAUUUUCGGCGGAUGCCUCCAAA [U46A U47G], 1480 ± 970 µM. As for AUAAAAGCGCCAGAACUACAGAAAUGUAGUUGACGAGGAGGAGUUUUAUCGUAUUUUCGGCGGAUGCCUCCAAA [G44U A52U], the KM was 11000 ± 1500 µM. In the case of AUAAAAGCGCCAGAACUACAGAAAUGUAGUUGACGAGGAGGAGGUAUAUCGAAUUUUCGACGGAUGCCUCCAAA [U46A G60A], the Michaelis-Menten constant (KM) turned out to be 27.6 ± 23 µM.

For the variant AUAAAAGCGCCAGAACUACAGAAAUGUAGUUGACGAGGAGGAGGGUUAUCGAAUUUUCGGCGGAUGCCUCUAAA [U45G C71U], the KM was determined as 2380 ± 450 µM. Same read-out and setting: to AUAAAAGCGCCAGAACUACAGAAAUGUAGUUGACGAGGAGGGGGUAUAUCGAAUUUUCGGCGGAUGCCUCCAAA [A42G U46A] belongs 1200 ± 320 µM; to AUAAAAGCGCCAGAACUACAGAAAUGUAGUUGACGAGGAGGAGCUUUAUCGAACUUUCGGCGGAUGCCUCCAAA [G44C U54C], 3920 ± 2700 µM; to AUAAAAGCGCCAGAACUACAGAAAUGUAGUUGACGAGGAGGAGUUUUAUCGAAUUGUCGGCGGAUGCCUCCAAA [G44U U56G], 3010 ± 1100 µM. In the case of AUAAAAGCGCCAGAACUACAGAAAUGUAGUUGACGAGGAGGAGGGUUAUCGAAUUUUCGGCGGAGGCCUCCAAA [U45G U65G], the KM came to 2200 ± 1000 µM. The same measure, in the same setting: the result for AUAAAAGCGCCAGAACUACAGAAAUGUAGUUGACGAGGAGGAGGUCUAUCGAUUUUUCGGCGGAUGCCUCCAAA [U46C A53U] reads 1640 ± 260 µM. Same read-out and setting: the result for AUAAAAGCGCCAGAACUACAGAAAUGUAGUUGACGAGGAGGAGGUCUAUCGAAUUUUCGGCGGAUGCCUUCAAA [U46C C70U] reads 2770 ± 1500 µM; that for AUAAAAGCGCCAGAACUACAGAAAUGUAGUUGACGAGGAGGAGGUCUAUCGAAUUUUCGGCGGAUGCCUGCAAA [U46C C70G], 1060 ± 650 µM. Still for that read-out and setting: the result for AUAAAAGCGCCAGAACUACAGAAAUGUAGUUGACGAGGAGGAGGUCUAUCGAAUUUUCGGCGGAUGCCUACAAA [U46C C70A] reads 685 ± 430 µM; that for AUAAAAGCGCCAGAACUACAGAAAUGUAGUUGACGAGGAGGAGAUUUAUCGACUUUUCGGCGGAUGCCUCCAAA [G44A A53C], 1690 ± 1200 µM; that for AUAAAAGCGCCAGAACUACAGAAAUGUAGUUGACGAGGAGGAGGGUUUUCGAAUUUUCGGCGGAUGCCUCCAAA [U45G A48U], 3040 ± 1200 µM. As for AUAAAAGCGCCAGAACUACAGAAAUGUAGUUGACGAGGAGGAGGUAUAUCGAAUUUUCGGCGGAUUCCUCCAAA [U46A G66U], the KM came out at 5940 ± 2100 µM. Regarding AUAAAAGCGCCAGAACUACAGAAAUGUAGUUGACGAGGAGGGGGUUUAUCGAAAUUUCGGCGGAUGCCUCCAAA [A42G U54A], the Michaelis constant (KM) was determined as 784 ± 450 µM. As to AUAAAAGCGCCAGAACUACAGAAAUGUAGUUGACGAGGAGGAGGUAUAUCGAAUUUUCGGCGGGUGCCUCCAAA [U46A A64G], the Michaelis-Menten constant (KM) worked out at 2700 ± 990 µM. Same read-out and setting: the result for AUAAAAGCGCCAGAACUACAGAAAUGUAGUUGACGAGGAGGAGCUUUAUAGAAUUUUCGGCGGAUGCCUCCAAA [G44C C50A] reads 105 ± 18 µM; that for AUAAAAGCGCCAGAACUACAGAAAUGUAGUUGACGAGGAGGGGGUUUAUCGAAUUUUCGGCGGAUGUCUCCAAA [A42G C67U], 343 ± 200 µM. Turning to AUAAAAGCGCCAGAACUACAGAAAUGUAGUUGACGAGGAGGAGGUCUUUCGAAUUUUCGGCGGAUGCCUCCAAA [U46C A48U], the KM amounted to 1540 ± 940 µM. Same read-out and setting: to AUAAAAGCGCCAGAACUACAGAAAUGUAGUUGACGAGGAGGAGGUCUCUCGAAUUUUCGGCGGAUGCCUCCAAA [U46C A48C] belongs 4620 ± 2400 µM.

The variants in a further data set derive from B1. As to the kind of experiment: self-cleavage kobs at 2500 uM GlcN6P; higher = faster cleavage; RNA array. Particulars: with glucosamine-6-phosphate. In outline:
as §1
Turning to AUAAAAGCGCCAGAACUACAGAAAUGUAGUUGACGAGGAGGAAGGUUAUCGAAUUUUGGGCGGAUGCCUCCAAA [G43A U45G C58G], the “self-cleavage kobs at 2500 uM GlcN6P” value was found to be 2.54e-05 ± 1.6e-05 s⁻¹. Turning to AUAAAAGCGCCAGAACUACAGAAAUGUAGUUGACGAGGAGGGGGUAUAUCGAAUUUUCGGCGGAUGCCUCCAAA [A42G U46A], the “self-cleavage kobs at 2500 uM GlcN6P” value amounted to 0.00194 ± 0.001 s⁻¹. The same measure, in the same setting: the result for AUAAAAGCGCCAGAACUACAGAAAUGUAGUUGACGAGGAGGGGGUUUAUCGAAAUUUCGGCGGAUGCCUCCAAA [A42G U54A] reads 0.0466 ± 0.03 s⁻¹.

Variants of B1 are the subject of a further data set. The data set is described as follows: self-cleavage kobs at 10000 uM GlcN6P; higher = faster cleavage; RNA array. Conditions: with glucosamine-6-phosphate. In outline:
as §1
With AUAAAAGCGCCAGAACUACAGAAAUGUAGUUGACGAGGAGGAAGGUUAUCGAAUUUUGGGCGGAUGCCUCCAAA [G43A U45G C58G], the “self-cleavage kobs at 10000 uM GlcN6P” value was found to be 2.83e-05 ± 1.7e-05 s⁻¹. Still for that read-out and setting: to AUAAAAGCGCCAGAACUACAGAAAUGUAGUUGACGAGGAGGAUGUUUAUCGAUUUUUCGGCGGAUGCCUCCAAA [G43U A53U] belongs 2.07e-05 ± 1.5e-05 s⁻¹; to AUAAAAGCGCCAGAACUACAGAAAUGUAGUUGACGAGGAGGAUGUUUAUCGAGUUUUCGGCGGAUGCCUCCAAA [G43U A53G], 4.36e-05 ± 2.3e-05 s⁻¹.

Another data set covers variants of B1. As to the kind of experiment: self-cleavage kobs at 640 uM GlcN6P; higher = faster cleavage; RNA array. Particulars: with glucosamine-6-phosphate. In outline:
as §1
With AUAAAAGCGCCAGAACUACAGAAAUGUAGUUGACGAGGAGGAGCUUUAUCGAACUUUCGGCGGAUGCCUCCAAA [G44C U54C], the “self-cleavage kobs at 640 uM GlcN6P” value was found to be 1.66e-05 ± 1.6e-05 s⁻¹. On the same count and under the same terms, the result for AUAAAAGCGCCAGAACUACAGAAAUGUAGUUGACGAGGAGGAGGUCUUUCGAAUUUUCGGCGGAUGCCUCCAAA [U46C A48U] reads 1.68e-05 ± 1e-05 s⁻¹.

The variants in a further data set derive from B1. The data set is described as follows: self-cleavage kobs at 160 uM GlcN6P; higher = faster cleavage; RNA array. Particulars: with glucosamine-6-phosphate. The procedure, abridged:
as §1
Turning to AUAAAAGCGCCAGAACUACAGAAAUGUAGUUGACGAGGAGGAGGUAUAUCGAAUUUUCGGCGGGUGCCUCCAAA [U46A A64G], the “self-cleavage kobs at 160 uM GlcN6P” value amounted to 0.000211 ± 0.00015 s⁻¹.

The record behind these values is the supplement of paper PMC7125110.
